# This is one part of the list.
# Sequences of proteins named here, by UniProt entry; tags and fusion partners are left off. A change or cut given only in a name is not applied to a line headed by its entry.
# UniProt Q92620: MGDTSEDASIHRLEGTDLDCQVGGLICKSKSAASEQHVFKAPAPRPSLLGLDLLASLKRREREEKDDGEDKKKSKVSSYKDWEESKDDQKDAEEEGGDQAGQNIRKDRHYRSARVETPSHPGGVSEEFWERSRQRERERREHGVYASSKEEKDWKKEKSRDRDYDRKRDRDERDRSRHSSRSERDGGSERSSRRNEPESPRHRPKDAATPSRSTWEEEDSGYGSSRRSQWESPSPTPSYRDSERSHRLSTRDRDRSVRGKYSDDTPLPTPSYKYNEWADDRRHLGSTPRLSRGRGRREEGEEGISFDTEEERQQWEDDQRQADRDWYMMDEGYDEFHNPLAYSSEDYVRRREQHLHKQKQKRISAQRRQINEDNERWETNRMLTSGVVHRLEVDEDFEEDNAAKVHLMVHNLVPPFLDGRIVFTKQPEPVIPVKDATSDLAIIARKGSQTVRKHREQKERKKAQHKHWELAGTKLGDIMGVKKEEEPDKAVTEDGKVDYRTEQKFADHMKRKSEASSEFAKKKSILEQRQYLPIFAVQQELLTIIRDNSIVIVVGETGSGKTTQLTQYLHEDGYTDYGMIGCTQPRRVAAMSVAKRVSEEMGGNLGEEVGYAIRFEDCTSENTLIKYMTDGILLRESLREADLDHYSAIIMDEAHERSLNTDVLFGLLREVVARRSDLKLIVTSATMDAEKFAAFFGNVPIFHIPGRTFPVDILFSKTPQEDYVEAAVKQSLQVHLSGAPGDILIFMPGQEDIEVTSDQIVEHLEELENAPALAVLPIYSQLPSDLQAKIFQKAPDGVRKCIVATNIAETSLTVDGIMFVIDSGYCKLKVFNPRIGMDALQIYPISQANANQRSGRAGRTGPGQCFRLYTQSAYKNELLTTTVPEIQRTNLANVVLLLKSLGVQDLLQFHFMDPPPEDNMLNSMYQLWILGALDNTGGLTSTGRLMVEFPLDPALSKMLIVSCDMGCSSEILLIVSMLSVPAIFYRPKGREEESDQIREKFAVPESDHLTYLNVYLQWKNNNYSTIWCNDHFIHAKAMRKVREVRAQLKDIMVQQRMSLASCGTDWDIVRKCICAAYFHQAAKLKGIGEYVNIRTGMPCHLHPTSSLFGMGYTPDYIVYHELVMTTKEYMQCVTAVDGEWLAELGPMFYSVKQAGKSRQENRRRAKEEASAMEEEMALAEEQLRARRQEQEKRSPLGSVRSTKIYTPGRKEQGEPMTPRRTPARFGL
# UniProt Q16698: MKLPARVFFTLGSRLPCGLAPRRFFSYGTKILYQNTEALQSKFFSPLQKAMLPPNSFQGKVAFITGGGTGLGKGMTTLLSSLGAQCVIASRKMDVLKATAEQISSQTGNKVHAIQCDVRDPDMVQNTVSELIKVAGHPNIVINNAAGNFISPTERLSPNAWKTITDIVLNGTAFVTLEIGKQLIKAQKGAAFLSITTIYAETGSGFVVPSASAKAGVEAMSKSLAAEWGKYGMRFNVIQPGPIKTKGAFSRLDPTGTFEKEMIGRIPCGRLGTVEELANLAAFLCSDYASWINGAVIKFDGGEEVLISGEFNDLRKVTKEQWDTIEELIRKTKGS
# UniProt Q9BTZ2: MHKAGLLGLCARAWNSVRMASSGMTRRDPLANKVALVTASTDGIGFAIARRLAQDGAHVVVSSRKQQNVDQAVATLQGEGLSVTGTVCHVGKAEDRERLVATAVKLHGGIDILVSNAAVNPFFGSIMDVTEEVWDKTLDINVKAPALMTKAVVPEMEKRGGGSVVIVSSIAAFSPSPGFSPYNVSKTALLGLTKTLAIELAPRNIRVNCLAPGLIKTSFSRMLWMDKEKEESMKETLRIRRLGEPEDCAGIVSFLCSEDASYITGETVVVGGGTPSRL
# UniProt Q13838, whole entry, looked up: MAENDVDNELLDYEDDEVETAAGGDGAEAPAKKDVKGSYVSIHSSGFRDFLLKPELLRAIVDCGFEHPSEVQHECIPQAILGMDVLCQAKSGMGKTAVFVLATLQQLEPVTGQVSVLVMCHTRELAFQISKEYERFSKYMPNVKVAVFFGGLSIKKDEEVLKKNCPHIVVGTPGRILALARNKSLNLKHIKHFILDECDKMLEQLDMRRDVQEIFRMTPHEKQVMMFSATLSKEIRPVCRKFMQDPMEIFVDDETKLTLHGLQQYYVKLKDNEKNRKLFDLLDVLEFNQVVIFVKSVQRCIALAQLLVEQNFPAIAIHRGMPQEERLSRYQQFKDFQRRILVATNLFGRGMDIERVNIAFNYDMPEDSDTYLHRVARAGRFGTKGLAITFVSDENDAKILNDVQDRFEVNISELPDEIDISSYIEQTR
# UniProt P36957: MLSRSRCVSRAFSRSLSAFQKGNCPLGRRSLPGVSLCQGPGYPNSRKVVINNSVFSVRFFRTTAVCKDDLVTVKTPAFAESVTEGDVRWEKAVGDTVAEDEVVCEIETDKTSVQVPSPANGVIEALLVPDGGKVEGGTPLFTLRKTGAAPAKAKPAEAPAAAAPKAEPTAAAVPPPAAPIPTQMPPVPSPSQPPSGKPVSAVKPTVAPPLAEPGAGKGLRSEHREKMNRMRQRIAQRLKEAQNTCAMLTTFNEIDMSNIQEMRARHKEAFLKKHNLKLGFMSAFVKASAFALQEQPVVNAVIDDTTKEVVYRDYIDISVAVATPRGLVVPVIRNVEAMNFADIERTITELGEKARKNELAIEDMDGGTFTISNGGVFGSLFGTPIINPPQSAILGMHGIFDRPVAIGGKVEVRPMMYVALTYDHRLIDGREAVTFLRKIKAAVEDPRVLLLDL
# UniProt P00374: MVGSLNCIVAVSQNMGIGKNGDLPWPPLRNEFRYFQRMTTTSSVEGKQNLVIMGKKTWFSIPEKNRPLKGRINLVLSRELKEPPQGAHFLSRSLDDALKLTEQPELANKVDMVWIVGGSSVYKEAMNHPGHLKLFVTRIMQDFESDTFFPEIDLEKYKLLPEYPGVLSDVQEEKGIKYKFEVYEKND
# UniProt Q12959, whole entry, looked up: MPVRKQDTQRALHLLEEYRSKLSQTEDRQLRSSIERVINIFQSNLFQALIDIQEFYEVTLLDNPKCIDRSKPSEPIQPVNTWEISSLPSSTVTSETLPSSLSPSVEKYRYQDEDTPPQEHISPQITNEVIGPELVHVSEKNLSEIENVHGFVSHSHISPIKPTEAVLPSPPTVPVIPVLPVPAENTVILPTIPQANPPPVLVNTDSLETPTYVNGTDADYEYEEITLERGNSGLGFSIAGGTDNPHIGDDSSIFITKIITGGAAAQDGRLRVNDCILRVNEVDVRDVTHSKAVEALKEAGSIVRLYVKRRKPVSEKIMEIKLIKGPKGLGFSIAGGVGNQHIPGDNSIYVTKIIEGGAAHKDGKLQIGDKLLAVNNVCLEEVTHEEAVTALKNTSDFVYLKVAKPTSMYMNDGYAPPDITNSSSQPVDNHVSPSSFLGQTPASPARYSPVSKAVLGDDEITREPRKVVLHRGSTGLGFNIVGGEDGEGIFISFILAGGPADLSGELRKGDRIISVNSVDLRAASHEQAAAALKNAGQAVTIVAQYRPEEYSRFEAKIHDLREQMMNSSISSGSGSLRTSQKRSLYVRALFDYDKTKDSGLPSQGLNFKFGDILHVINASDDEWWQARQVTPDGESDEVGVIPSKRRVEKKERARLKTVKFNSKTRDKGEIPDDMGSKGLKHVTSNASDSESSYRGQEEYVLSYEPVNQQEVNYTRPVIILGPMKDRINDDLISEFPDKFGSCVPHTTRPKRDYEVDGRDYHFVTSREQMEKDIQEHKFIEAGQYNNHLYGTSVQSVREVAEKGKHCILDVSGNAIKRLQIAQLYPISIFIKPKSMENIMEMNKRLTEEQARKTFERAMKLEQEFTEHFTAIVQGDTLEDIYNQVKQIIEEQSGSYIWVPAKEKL
# UniProt Q8IWF6: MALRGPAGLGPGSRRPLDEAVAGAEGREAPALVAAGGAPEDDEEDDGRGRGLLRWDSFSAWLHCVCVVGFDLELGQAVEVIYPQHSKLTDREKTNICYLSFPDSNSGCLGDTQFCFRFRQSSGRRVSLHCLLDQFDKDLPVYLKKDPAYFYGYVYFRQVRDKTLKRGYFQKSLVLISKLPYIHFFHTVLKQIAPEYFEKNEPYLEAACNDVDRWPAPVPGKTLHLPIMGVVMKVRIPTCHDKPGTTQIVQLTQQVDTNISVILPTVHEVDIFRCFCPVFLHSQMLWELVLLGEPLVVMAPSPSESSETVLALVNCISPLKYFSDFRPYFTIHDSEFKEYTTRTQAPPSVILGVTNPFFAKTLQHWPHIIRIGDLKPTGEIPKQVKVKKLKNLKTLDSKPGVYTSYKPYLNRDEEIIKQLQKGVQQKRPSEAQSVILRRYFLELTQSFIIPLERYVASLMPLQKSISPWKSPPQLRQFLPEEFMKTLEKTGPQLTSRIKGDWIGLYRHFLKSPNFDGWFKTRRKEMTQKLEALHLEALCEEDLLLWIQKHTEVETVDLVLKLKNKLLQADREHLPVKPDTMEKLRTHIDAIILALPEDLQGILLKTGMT
# UniProt O94830: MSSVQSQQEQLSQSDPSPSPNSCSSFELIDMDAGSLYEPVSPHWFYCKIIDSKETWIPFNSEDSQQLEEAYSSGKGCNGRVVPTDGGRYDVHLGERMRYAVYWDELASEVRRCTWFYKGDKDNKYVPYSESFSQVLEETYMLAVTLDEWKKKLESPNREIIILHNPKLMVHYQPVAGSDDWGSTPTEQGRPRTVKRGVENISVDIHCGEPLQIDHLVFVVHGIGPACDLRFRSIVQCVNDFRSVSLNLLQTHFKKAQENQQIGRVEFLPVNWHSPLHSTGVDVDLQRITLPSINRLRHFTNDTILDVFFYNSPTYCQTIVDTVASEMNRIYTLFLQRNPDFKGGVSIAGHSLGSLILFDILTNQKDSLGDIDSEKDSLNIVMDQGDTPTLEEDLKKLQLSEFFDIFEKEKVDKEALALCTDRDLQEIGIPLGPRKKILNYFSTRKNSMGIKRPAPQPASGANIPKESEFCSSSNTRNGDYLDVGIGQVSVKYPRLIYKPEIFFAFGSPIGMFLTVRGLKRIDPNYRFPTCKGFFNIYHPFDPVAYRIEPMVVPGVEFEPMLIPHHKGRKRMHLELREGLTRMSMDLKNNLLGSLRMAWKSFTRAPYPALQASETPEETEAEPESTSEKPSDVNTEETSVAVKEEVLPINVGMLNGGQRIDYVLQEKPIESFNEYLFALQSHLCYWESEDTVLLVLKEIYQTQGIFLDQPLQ
# UniProt Q08495: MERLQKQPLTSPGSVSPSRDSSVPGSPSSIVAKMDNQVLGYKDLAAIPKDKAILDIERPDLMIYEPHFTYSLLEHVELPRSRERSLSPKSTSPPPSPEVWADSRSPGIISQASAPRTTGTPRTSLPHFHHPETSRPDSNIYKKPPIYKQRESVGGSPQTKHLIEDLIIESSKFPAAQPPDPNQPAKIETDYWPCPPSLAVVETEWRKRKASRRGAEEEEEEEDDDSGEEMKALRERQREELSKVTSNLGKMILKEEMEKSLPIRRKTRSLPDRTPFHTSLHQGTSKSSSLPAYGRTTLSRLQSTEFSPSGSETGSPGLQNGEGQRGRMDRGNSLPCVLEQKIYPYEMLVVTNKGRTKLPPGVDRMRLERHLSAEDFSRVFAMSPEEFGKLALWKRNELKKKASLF
# UniProt Q86XP3: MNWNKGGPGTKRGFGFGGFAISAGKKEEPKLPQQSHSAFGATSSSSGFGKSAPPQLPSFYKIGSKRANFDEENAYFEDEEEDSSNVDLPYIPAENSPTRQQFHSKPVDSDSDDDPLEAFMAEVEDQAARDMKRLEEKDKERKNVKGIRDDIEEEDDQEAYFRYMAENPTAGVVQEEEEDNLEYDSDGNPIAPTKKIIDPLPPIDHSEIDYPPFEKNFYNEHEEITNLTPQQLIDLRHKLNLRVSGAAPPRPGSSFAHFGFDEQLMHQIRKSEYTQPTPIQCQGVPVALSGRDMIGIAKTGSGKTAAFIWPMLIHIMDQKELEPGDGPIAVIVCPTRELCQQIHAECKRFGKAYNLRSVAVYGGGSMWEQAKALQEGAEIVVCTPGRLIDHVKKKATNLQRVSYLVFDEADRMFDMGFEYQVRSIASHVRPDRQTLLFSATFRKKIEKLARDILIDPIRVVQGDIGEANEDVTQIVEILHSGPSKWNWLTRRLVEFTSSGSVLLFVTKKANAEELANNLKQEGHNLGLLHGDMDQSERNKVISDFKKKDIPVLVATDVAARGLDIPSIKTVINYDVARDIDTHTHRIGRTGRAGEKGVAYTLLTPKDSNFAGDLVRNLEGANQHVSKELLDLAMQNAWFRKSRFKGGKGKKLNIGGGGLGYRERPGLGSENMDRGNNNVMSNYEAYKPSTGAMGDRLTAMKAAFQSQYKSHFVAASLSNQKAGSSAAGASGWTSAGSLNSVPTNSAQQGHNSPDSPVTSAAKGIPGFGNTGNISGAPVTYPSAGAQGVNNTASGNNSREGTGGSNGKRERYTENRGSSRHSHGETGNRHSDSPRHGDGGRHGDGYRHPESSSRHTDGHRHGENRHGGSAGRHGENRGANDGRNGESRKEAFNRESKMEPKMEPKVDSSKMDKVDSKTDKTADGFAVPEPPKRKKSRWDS
# What was measured:
# Experiment in all cases: log2 fold change, soluble protein after heating vs DMSO (PISA); higher = thermal stabilisation; K562 cells, 10 uM, 30 min; active = over 0.2 and 3.5 SD of the protein, either way, in both replicates (recomputed)
# [1] = compound: CS(=O)(=O)c1ccc(-c2cnc(N)c(C(=O)Nc3ccccc3)n2)cc1
# Procedure, shortened: (§1)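 Thermal stability values are relative to control samples and come from duplicates. They are expressed as log2 fold changes. For measurement, K562 cells (2×10^6 cells/mL) received 10 μM compound for 30 min, and aliquots were heated for 3 min over 48°C-58°C, pooled, and extracted at 4°C in PBS with 0.5% NP-40. Soluble protein, the supernatant after 21,000xg for 90 min, was quantified by TMTpro 16plex LC-MS/MS with equalised channel sums.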
# crizotinib = compound: C[C@@H](Oc1cc(-c2cnn(C3CCNCC3)c2)cnc1N)c1c(Cl)ccc(F)c1Cl [crizotinib]
# Procedure, shortened: as §1
# [2] = compound: C[C@@H]1COCCN1C2=NC(=NC(=C2)C3(CC3)S(=O)(=O)C)C4=C5C=CNC5=CC=C4
# Procedure, shortened: as §1
# [3] = compound: C[C@H](C1=CC=C(C=C1)C(=O)NC2=C3C=CNC3=NC=C2)N
# Procedure, shortened: as §1
# duvelisib = compound: C[C@H](Nc1ncnc2nc[nH]c12)c1cc2cccc(Cl)c2c(=O)n1-c1ccccc1 [duvelisib]
# Procedure, shortened: as §1
# tozasertib = compound: Cc1cc(Nc2cc(N3CCN(C)CC3)nc(Sc3ccc(NC(=O)C4CC4)cc3)n2)n[nH]1 [tozasertib]
# Procedure, shortened: as §1
# [4] = compound: Cc1cc(SCc2sc(-c3ccc(C(F)(F)F)cc3)nc2C)ccc1OCC(=O)O
# Procedure, shortened: as §1
# doramapimod = compound: Cc1ccc(-n2nc(C(C)(C)C)cc2NC(=O)Nc2ccc(OCCN3CCOCC3)c3ccccc23)cc1 [doramapimod]
# Procedure, shortened: as §1
# ispinesib = compound: Cc1ccc(C(=O)N(CCCN)[C@@H](c2nc3cc(Cl)ccc3c(=O)n2Cc2ccccc2)C(C)C)cc1 [ispinesib]
# Procedure, shortened: as §1
# bafetinib = compound: Cc1ccc(NC(=O)c2ccc(CN3CC[C@H](N(C)C)C3)c(C(F)(F)F)c2)cc1Nc1nccc(-c2cncnc2)n1 [bafetinib]
# Procedure, shortened: as §1
# nilotinib = compound: Cc1cn(-c2cc(NC(=O)c3ccc(C)c(Nc4nccc(-c5cccnc5)n4)c3)cc(C(F)(F)F)c2)cn1 [nilotinib]
# Procedure, shortened: as §1
# [5] = compound: Cc1nc(Nc2n[nH]c3c2CN(C(=O)N[C@H](CN(C)C)c2ccccc2)C3(C)C)c2sccc2n1
# Procedure, shortened: as §1
# dasatinib = compound: Cc1nc(Nc2ncc(C(=O)Nc3c(C)cccc3Cl)s2)cc(N2CCN(CCO)CC2)n1 [dasatinib]
# Procedure, shortened: as §1
# [6] = compound: Cc1ncc(-c2ccnc(Nc3ccc(S(C)(=O)=O)cc3)n2)n1C(C)C
# Procedure, shortened: as §1
# [7] = compound: Cn1cc(-c2ccc3c(c2)CCN3C(=O)Cc2cccc(C(F)(F)F)c2)c2c(N)ncnc21
# Procedure, shortened: as §1
# [8] = compound: Cn1cc(-c2ccc3nnc(C(F)(F)c4ccc5ncccc5c4)n3n2)cn1
# Procedure, shortened: as §1
# tipifarnib = compound: Cn1cncc1[C@@](N)(c1ccc(Cl)cc1)c1ccc2c(c1)c(-c1cccc(Cl)c1)cc(=O)n2C [tipifarnib]
# Procedure, shortened: as §1
# mubritinib = compound: FC(F)(F)c1ccc(/C=C/c2nc(COc3ccc(CCCCn4ccnn4)cc3)co2)cc1 [mubritinib]
# Procedure, shortened: as §1
# gandotinib = compound: Cc1cc(Nc2cc(CN3CCOCC3)c3nc(C)c(Cc4ccc(Cl)cc4F)n3n2)n[nH]1 [gandotinib]
# Procedure, shortened: as §1
# [9] = compound: Cc1cccc(CC(=O)N2CCc3c2ccc(-c2cn(C)c4ncnc(N)c24)c3F)n1
# Procedure, shortened: as §1
Target,log2 fold change [1],log2 fold change (crizotinib),log2 fold change [2],log2 fold change [3],log2 fold change (duvelisib),log2 fold change (tozasertib),log2 fold change [4],log2 fold change (doramapimod),log2 fold change (ispinesib),log2 fold change (bafetinib),log2 fold change (nilotinib),log2 fold change [5],log2 fold change (dasatinib),log2 fold change [6],log2 fold change [7],log2 fold change [8],log2 fold change (tipifarnib),log2 fold change (mubritinib),log2 fold change (gandotinib),log2 fold change [9]
DNAH8 (UniProt Q96JB1),inactive: 0.046,inactive: 0.033,inactive: 0.055,inactive: 0.042,inactive: 0.104,inactive: -0.187,inactive: 0.09,inactive: 0.214,inactive: 0.075,inactive: -0.021,inactive: -0.084,inactive: 0.054,inactive: 0.002,inactive: 0.078,inactive: 0.007,inactive: 0.038,inactive: -0.184,inactive: -0.066,,
DHX38 (UniProt Q92620),inactive: -0.005,inactive: 0.013,inactive: 0.044,inactive: 0.015,inactive: 0.03,inactive: -0.013,inactive: -0.009,inactive: -0.006,inactive: 0.014,inactive: -0.055,inactive: 0.022,inactive: 0.071,inactive: -0.028,inactive: -0.009,inactive: 0.003,inactive: 0.019,inactive: -0.01,inactive: 0.034,inactive: 0.079,inactive: -0.094
DECR1 (UniProt Q16698),inactive: 0.002,inactive: 0.032,inactive: 0.027,inactive: -0.068,inactive: 0.045,inactive: 0.014,inactive: -0.006,inactive: -0.012,inactive: 0.042,inactive: 0.009,inactive: 0.019,inactive: -0.01,inactive: -0.018,inactive: -0.007,inactive: 0.035,inactive: -0.008,inactive: -0.061,inactive: 0.022,inactive: -0.03,inactive: 0.106
DDA1 (UniProt Q9BW61),inactive: 0.016,inactive: 0.121,inactive: 0.081,inactive: 0.022,inactive: 0.026,inactive: -0.018,inactive: 0.007,inactive: 0.042,inactive: -0.014,inactive: -0.065,inactive: 0.043,inactive: -0.033,inactive: -0.028,inactive: -0.06,inactive: -0.027,inactive: 0.029,inactive: 0.045,inactive: 0.003,inactive: -0.055,inactive: 0.003
DHRS4 (UniProt Q9BTZ2),inactive: -0.004,inactive: 0.045,inactive: 0.031,inactive: -0.097,inactive: -0.025,inactive: -0.005,inactive: -0.016,inactive: -0.017,inactive: 0.116,inactive: -0.042,inactive: -0.023,inactive: -0.027,inactive: 0.014,inactive: -0.002,inactive: 0.011,inactive: -0.008,inactive: -0.031,inactive: -0.005,inactive: -0.077,inactive: 0.002
DNAAF5 (UniProt Q86Y56),inactive: 0.225,inactive: -0.17,inactive: -0.379,inactive: 0.523,inactive: -0.12,inactive: 0.1,inactive: 0.107,inactive: 0.349,inactive: -0.312,inactive: -0.001,,,inactive: 0.003,,inactive: -0.238,inactive: -0.086,inactive: 0.097,inactive: 0.033,inactive: 0.283,inactive: 0.11
DDX39B isoform 2 (UniProt Q13838),inactive: -0.008,inactive: 0.083,inactive: -0.006,inactive: 0.054,inactive: -0.009,inactive: -0.014,inactive: 0.002,inactive: 0.018,inactive: 0.083,inactive: 0.036,inactive: -0.021,inactive: 0.046,inactive: 0.038,inactive: 0.032,inactive: -0.05,inactive: -0.065,inactive: 0.025,inactive: -0.096,inactive: -0.024,inactive: -0.055
DLST (UniProt P36957),inactive: 0.017,inactive: 0.011,inactive: -0.117,inactive: 0.054,inactive: -0.048,inactive: -0.036,inactive: -0.021,inactive: 0.018,inactive: -0.032,inactive: 0.048,inactive: 0.019,inactive: 0.067,inactive: 0.102,inactive: -0.035,inactive: -0.049,inactive: 0.016,inactive: 0.106,inactive: -0.06,inactive: 0.061,inactive: -0.042
DNAH9 (UniProt Q9NYC9),inactive: -0.032,inactive: 0.03,inactive: 0.041,inactive: -0.053,inactive: 0.061,inactive: -0.018,inactive: -0.083,inactive: -0.017,inactive: -0.023,inactive: -0.013,inactive: -0.006,inactive: 0.056,inactive: 0.033,inactive: -0.013,inactive: -0.011,inactive: 0.011,inactive: -0.024,inactive: 0.009,inactive: 0.009,inactive: -0.019
DHFR (UniProt P00374),inactive: -0.009,active: 0.956,inactive: -0.015,inactive: 0.239,active: 0.604,,inactive: 0.048,inactive: 0.179,inactive: -0.207,inactive: 0.191,inactive: 0.185,inactive: -0.022,inactive: -0.187,inactive: 0.076,inactive: 0,inactive: 0.182,inactive: 0.177,inactive: -0.225,inactive: -0.194,inactive: 0.026
DLG1 isoform 2 (UniProt Q12959),inactive: 0.041,inactive: -0.044,inactive: 0.026,inactive: -0.062,inactive: -0.044,inactive: -0.06,inactive: 0.02,inactive: 0.004,inactive: 0.111,inactive: -0.019,inactive: 0.015,inactive: -0.075,inactive: 0.021,inactive: -0.061,inactive: 0.038,inactive: 0.109,inactive: 0.016,inactive: 0.05,inactive: -0.054,inactive: 0.01
DENND6A (UniProt Q8IWF6),inactive: -0.057,inactive: -0.044,inactive: 0.109,inactive: 0.009,inactive: -0.109,inactive: 0.073,inactive: 0.033,inactive: 0.018,inactive: -0.178,inactive: -0.068,inactive: 0.041,inactive: -0.026,inactive: -0.062,inactive: 0.069,inactive: 0.014,inactive: -0.04,inactive: 0.073,inactive: 0.023,inactive: 0.076,inactive: -0.106
DDX23 (UniProt Q9BUQ8),inactive: -0.023,inactive: 0.082,inactive: -0.162,inactive: 0.212,inactive: 0.037,inactive: 0.118,inactive: -0.025,inactive: 0.182,inactive: 0.079,inactive: 0.341,inactive: 0.301,inactive: -0.016,inactive: 0.283,inactive: 0.073,inactive: -0.306,inactive: -0.104,inactive: -0.016,inactive: 0.101,inactive: 0.159,inactive: -0.081
DDHD2 (UniProt O94830),inactive: -0.009,inactive: -0.189,inactive: 0.027,inactive: -0.009,inactive: 0.01,inactive: -0.087,inactive: -0.009,inactive: -0.011,inactive: -0.13,inactive: -0.051,inactive: 0.041,inactive: -0.017,inactive: -0.085,inactive: -0.021,inactive: 0.116,inactive: -0.048,inactive: -0.078,inactive: 0.072,inactive: -0.039,inactive: -0.02
DMTN (UniProt Q08495),inactive: 0.017,inactive: -0.015,inactive: 0.044,inactive: -0.042,inactive: 0.052,inactive: -0.038,inactive: -0.057,inactive: 0.002,inactive: 0.006,inactive: -0.074,inactive: -0.004,inactive: -0.055,inactive: 0.004,inactive: -0.041,inactive: 0.022,inactive: -0.051,inactive: -0.014,inactive: 0.013,inactive: 0.037,inactive: 0.012
DDX24 (UniProt Q9GZR7),inactive: 0.014,inactive: 0.024,inactive: -0.278,inactive: 0.398,inactive: -0.083,inactive: 0.094,inactive: -0.021,inactive: 0.135,inactive: 0.013,,,,inactive: 0.236,,inactive: -0.265,inactive: -0.12,inactive: 0.017,inactive: 0.072,inactive: 0.174,inactive: 0.081
DDX42 (UniProt Q86XP3),inactive: 0.069,inactive: 0.031,inactive: 0.356,inactive: 0.032,inactive: 0.26,inactive: -0.009,inactive: 0.216,inactive: 0.139,inactive: 0.059,inactive: 0.109,,,inactive: -0.339,,inactive: -0.098,inactive: 0.026,inactive: -0.244,,inactive: -0.131,inactive: 0.04

# Taken from above:
# Value for DDHD2 (UniProt O94830) under log2 fold change (tozasertib): inactive: -0.087
# Value for DHFR (UniProt P00374) under log2 fold change (bafetinib): inactive: 0.191

# Reference: the supplement of paper PMC10849652
